# Source: the supplement of paper PMC5949888
# Most values lie at the floor of the assay. Slopes are relative: functional sequences can read slightly below zero.
# Test system: Saccharomyces cerevisiae PS128 hsf1 delta, HSF1(1-493) fusion
# Test: growth estimate (transactivation domain function in HSF1 fusion, heat-shock survival) (a.u. (slope of normalised read count over time)); higher = stronger growth at 37°C, i.e. more transactivation activity
# Conditions: library: random library
row,Substance,growth estimate
1,HRSTAKDMRVPGGFSECSYT,< -0.25
2,SKCDSSIELMNRIESQGSGQ,< -0.25
3,CHMSMFPDASNFILSY,< -0.25
4,NVLRWL,< -0.25
5,RGLGHMIHSKSALGAPGSVR,< -0.25
6,FWVSIRLSGLCPFNGPGSFS,< -0.25
7,ISNSTAK,< -0.25
8,GCCLDVVG,< -0.25
9,GRVGLENEVPTFRCSGSKS,< -0.25
10,FERVSGCGLGIAARSTAITQ,< -0.25
11,PFVPFLCRI,< -0.25
12,DSRMDR,< -0.25
13,MPSQGSGES,< -0.25
14,YGTHHSHKSVY,< -0.25
15,GNSGSGPVGQFVAFPLSLVA,< -0.25
16,IIEHVKFNL,< -0.25
17,SSCAVIEFLLD,-0.187
18,NPDAMSTDSASGCSTDVSYG,< -0.25
19,VVLDDAVT,< -0.25
20,QARF,< -0.25
21,YFV,< -0.25
22,KNTGGSSSTLRPYIGD,< -0.25
23,GRERTM,< -0.25
24,RIHPTVEVFSIRACGSGLRL,< -0.25
25,LAGRFW,< -0.25

row,Substance,growth estimate
1,MTNLCAAGWRYPRGRLRF,< -0.25
2,LVLVLRKGGGLSEP,< -0.25
3,PVDVQDVATMEEHSSYARLS,< -0.25
4,NVLEMAFYNSPT,< -0.25
5,PRKAGSGLTAGLNANFTNLL,< -0.25
6,PCSL,< -0.25
7,SERIS,< -0.25
8,VDIGSREV,< -0.25
9,VNTYLVTGSRNGPCPGADTP,< -0.25
10,ADANPTGSRLVGFGMVHNGV,< -0.25
11,DLWSLEAVERTAPTKPGPKE,< -0.25
12,PYSVHGLAVSVRLSSEFTCP,< -0.25
13,IDQRRTKTGLFDIFYQWV,< -0.25
14,LFNAPLD,< -0.25
15,LDIVNYAGARSVEPDTR,< -0.25
16,HPKSETTGPCRELKAVWGGS,< -0.25
17,GLCKIFVKSVKLDRNGRAGH,< -0.25
18,MARFCNPGKHLCVAIRSV,< -0.25
19,LNPDGPGSDRRVEPCQDLAG,< -0.25
20,LPSLSNPDS,< -0.25
21,CST,< -0.25
22,SSCKERGSCSVRTSLSGPES,-0.241
23,WVPLARNEVGAYGIRRKGRS,< -0.25
24,CYYAWPGARSVGTRVSCVIA,< -0.25
25,SGMVLDTLLADTPGDLV,< -0.25

row,Substance,growth estimate
1,RIKGSDS,< -0.25
2,LDNLIECPSISDSRMMVPIT,< -0.25
3,RAWRPMHVLVQGCRSTPRRP,< -0.25
4,NLMGLQLVT,< -0.25
5,GVGSARSFPGRGLSEFASQP,< -0.25
6,LSKARTLRRTRDLRCVAGLR,< -0.25
7,RRGLLQSEV,< -0.25
8,SSMQFVRPRLFDIWSIELPQ,< -0.25
9,RIFDMKGGPDPGR,< -0.25
10,ITGSGDFVVRRA,< -0.25
11,VSGMVLDLRGAAEDGVSPWH,< -0.25
12,GGRVARVFVAHFDRWNHASD,< -0.25
13,HQILGRLIRSYALFGRAVVT,< -0.25
14,LREIGWLFLVALGKCRKCHK,< -0.25
15,AGATSSLYGQGKLSAYYWGD,< -0.25
16,CVVGTPFALSTIDCRTKHVE,< -0.25
17,CRKANKQGLSGLQ,< -0.25
18,SCSIEAS,< -0.25
19,DLVHRPVAQHYRVCVCRSSV,< -0.25
20,HGLSVAGLFAYATLVAYQFI,< -0.25
21,ILRRLGRCLGLDQKRGAEAQ,< -0.25
22,FVGPWLVAT,< -0.25
23,GVSRCLELPAEA,< -0.25
24,QTAED,< -0.25
25,QHESGSGVIGLRFAVS,-0.198

# Quoted from the listing.
# growth estimate with SCSIEAS reads < -0.25
# growth estimate with PYSVHGLAVSVRLSSEFTCP reads < -0.25

# Next results follow.

row,Substance,growth estimate
1,VWGGGYSSHAIPSANTSLIT,< -0.25
2,GGGVFPLVEKGQLESWCLDG,< -0.25
3,VLFPPIP,< -0.25
4,SLLSG,< -0.25
5,YDERRRCISTLNAELYIECP,< -0.25
6,MEGYAIVPRSHKKSAI,< -0.25
7,FSTISYLSGRFRRRW,< -0.25
8,PQSSPWSLGAGAVLANYGYQ,< -0.25
9,KSNRATLIWSLTEV,< -0.25
10,GLSQSESNRP,< -0.25
11,GIHNTLSSQGS,-0.248
12,VPPGTDPSVS,< -0.25
13,VMVVRVFKYGNITGCGSKNP,< -0.25
14,HLMPEPALQASGRITEVLC,< -0.25
15,RLGLVGRSI,< -0.25
16,IVRHTERTDCGGLLNFPRAS,< -0.25
17,PGQLQIGGPVSPLYLSLRDW,< -0.25
18,FPRKQHKVFADELALPNWSG,< -0.25
19,IPVRTSFRDGSPASIQASSA,< -0.25
20,GASTKILRKIVRRFYFRSNA,< -0.25
21,CNRNREGQSKARPPRPRLSH,< -0.25
22,TMHYDCCA,< -0.25
23,YVHQIRVRKSWGKNPKSVCS,< -0.25
24,NHCSGSAVPPQPLHCMGTGW,< -0.25

# Quoted at random: 2 records from the list.
row,Substance,growth estimate
11,VSGMVLDLRGAAEDGVSPWH,< -0.25
15,LDIVNYAGARSVEPDTR,< -0.25
